{"source": "the supplement of paper PMC8728848", "binders": {"B1": {"name": "PX14351B-bth-512-36-512 (Bacteroides thetaiotaomicron) (protein)", "chain": "ASETQQWKTLEDTRSALMGVYGLTRAALADNNTHWICGDLRKGDFTVYKRSDLQAVSDNELNKPYDLLKKVSNWRRFYAVINAASVFMEKAPRTVELDRSYSEQNLKYDIAQVRALRAFAYFYMVRIWGDVPLVTYSYDNGTFPSMPRTDAQTVLSYAKAELLTAIEDLPYQYGTQTNLYYGSYGAQWQGKLFNKLSAYSVLAHICAWQGNYAEAETYSAFIIDHASEINAKYTSIADLTSETGLFYSNASVKGSRILGFNFAHNDNEATQSGHLEQLTLAYPLVQKSYPEIYISKDSLFSIFTNFDDLRFGIIDTIKYSSYYVQNLNEETPVFSKIKIIQDGSAKDNDFGVFGSSIVFTRLEDITLLRAEALCALNRSTEAVSYLNMIRTNRGLREVSFKKDFGNNRESLIAEIFEERRRELMGEGWRWYDLVRRQKLMKDNEAFLRLISSGGIYWPVSEDIITANSQIEQNEFWK"}}, "assay_in_all_cases": "glycan array binding signal (z-score within array); higher = stronger binding", "settings_in_all_cases": "glycan notation: IUPAC condensed, linker removed", "key": {"[1]": {"molecular_target": "Neu5Ac(a2-3)Gal(b1-4)[Fuc(a1-3)]GlcNAc(b1-6)[Neu5Ac(a2-3)Gal(b1-3)]GalNAc", "in_short": "(§1)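 From the Consortium for Functional Glycomics database, 3228 arrays were curated, keeping only those whose protein sequence was available. Binding is given as a within-array Z-score averaged across arrays sharing a protein sequence and across linkers. Negative Z-scores can be read as non-binding.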"}, "[2]": {"molecular_target": "Neu5Ac(a2-3)Gal(b1-4)[Fuc(a1-3)]GlcNAc6S", "in_short": "as §1"}, "[3]": {"molecular_target": "Neu5Ac(a2-3)Gal6S(b1-4)GlcNAc", "in_short": "as §1"}, "[4]": {"molecular_target": "Neu5Ac(a2-3)Gal6S(b1-4)[Fuc(a1-3)]GlcNAc", "in_short": "as §1"}, "Neu5Ac(a2-3)GalNAc": {"molecular_target": "Neu5Ac(a2-3)GalNAc", "in_short": "as §1"}, "[5]": {"molecular_target": "Neu5Ac(a2-3)GalNAc(b1-4)GlcNAc", "in_short": "as §1"}, "[6]": {"molecular_target": "Neu5Ac(a2-3)[GalNAc(b1-4)]Gal(b1-4)Glc", "in_short": "as §1"}, "[7]": {"molecular_target": "Neu5Ac(a2-3)[GalNAc(b1-4)]Gal(b1-4)GlcNAc", "in_short": "as §1"}, "[8]": {"molecular_target": "Neu5Ac(a2-3)[GalNAc(b1-4)]Gal(b1-4)GlcNAc(b1-3)GalNAc", "in_short": "as §1"}, "[9]": {"molecular_target": "Neu5Ac(a2-3)[Neu5Ac(a2-6)]GalNAc", "in_short": "as §1"}, "Neu5Ac(a2-6)Gal": {"molecular_target": "Neu5Ac(a2-6)Gal", "in_short": "as §1"}, "[10]": {"molecular_target": "Neu5Ac(a2-6)Gal(b1-3)GlcNAc(b1-3)[Gal(b1-4)GlcNAc(b1-6)]Gal(b1-4)Glc", "in_short": "as §1"}, "Neu5Ac(a2-6)Gal(b1-4)Glc": {"molecular_target": "Neu5Ac(a2-6)Gal(b1-4)Glc", "in_short": "as §1"}, "[11]": {"molecular_target": "Neu5Ac(a2-6)Gal(b1-4)GlcNAc", "in_short": "as §1"}, "[12]": {"molecular_target": "Neu5Ac(a2-6)Gal(b1-4)GlcNAc(b1-2)Man", "in_short": "as §1"}, "[13]": {"molecular_target": "Neu5Ac(a2-6)Gal(b1-4)GlcNAc(b1-2)Man(a1-3)Man(b1-4)GlcNAc(b1-4)GlcNAc", "in_short": "as §1"}, "[14]": {"molecular_target": "Neu5Ac(a2-6)Gal(b1-4)GlcNAc(b1-2)Man(a1-3)[Gal(b1-4)GlcNAc(b1-2)Man(a1-6)]Man(b1-4)GlcNAc(b1-4)GlcNAc", "in_short": "as §1"}, "[15]": {"molecular_target": "Neu5Ac(a2-6)Gal(b1-4)GlcNAc(b1-2)Man(a1-3)[GlcNAc(b1-2)Man(a1-6)]Man(b1-4)GlcNAc(b1-4)GlcNAc", "in_short": "as §1"}, "[16]": {"molecular_target": "Neu5Ac(a2-6)Gal(b1-4)GlcNAc(b1-2)Man(a1-3)[GlcNAc(b1-4)][Neu5Ac(a2-6)Gal(b1-4)GlcNAc(b1-2)Man(a1-6)]Man(b1-4)GlcNAc(b1-4)GlcNAc", "in_short": "as §1"}, "[17]": {"molecular_target": "Neu5Ac(a2-6)Gal(b1-4)GlcNAc(b1-2)Man(a1-3)[Man(a1-6)]Man(b1-4)GlcNAc(b1-4)GlcNAc", "in_short": "as §1"}, "[18]": {"molecular_target": "Neu5Ac(a2-6)Gal(b1-4)GlcNAc(b1-2)Man(a1-3)[Neu5Ac(a2-3)Gal(b1-4)GlcNAc(b1-2)Man(a1-6)]Man(b1-4)GlcNAc(b1-4)GlcNAc", "in_short": "as §1"}, "[19]": {"molecular_target": "Neu5Ac(a2-6)Gal(b1-4)GlcNAc(b1-2)Man(a1-3)[Neu5Ac(a2-6)Gal(b1-4)GlcNAc(b1-2)Man(a1-6)]Man(b1-4)GlcNAc(b1-4)GlcNAc", "in_short": "as §1"}, "[20]": {"molecular_target": "Neu5Ac(a2-6)Gal(b1-4)GlcNAc(b1-2)Man(a1-3)[Neu5Ac(a2-6)Gal(b1-4)GlcNAc(b1-2)Man(a1-6)]Man(b1-4)GlcNAc(b1-4)[Fuc(a1-6)]GlcNAc", "in_short": "as §1"}, "[21]": {"molecular_target": "Neu5Ac(a2-6)Gal(b1-4)GlcNAc(b1-2)Man(a1-6)Man(b1-4)GlcNAc(b1-4)GlcNAc", "in_short": "as §1"}, "[22]": {"molecular_target": "Neu5Ac(a2-6)Gal(b1-4)GlcNAc(b1-2)Man(a1-6)[Gal(b1-4)GlcNAc(b1-2)Man(a1-3)]Man(b1-4)GlcNAc(b1-4)GlcNAc", "in_short": "as §1"}, "[23]": {"molecular_target": "Neu5Ac(a2-6)Gal(b1-4)GlcNAc(b1-2)Man(a1-6)[GlcNAc(b1-2)Man(a1-3)]Man(b1-4)GlcNAc(b1-4)GlcNAc", "in_short": "as §1"}, "[24]": {"molecular_target": "Neu5Ac(a2-6)Gal(b1-4)GlcNAc(b1-2)Man(a1-6)[Man(a1-3)]Man(b1-4)GlcNAc(b1-4)GlcNAc", "in_short": "as §1"}, "[25]": {"molecular_target": "Neu5Ac(a2-6)Gal(b1-4)GlcNAc(b1-2)[Neu5Ac(a2-6)Gal(b1-4)GlcNAc(b1-4)]Man(a1-3)[GlcNAc(b1-4)][Neu5Ac(a2-6)Gal(b1-4)GlcNAc(b1-4)Man(a1-6)]Man(b1-4)GlcNAc(b1-4)GlcNAc", "in_short": "as §1"}, "[26]": {"molecular_target": "Neu5Ac(a2-6)Gal(b1-4)GlcNAc(b1-2)[Neu5Ac(a2-6)Gal(b1-4)GlcNAc(b1-6)]Man(a1-6)[Neu5Ac(a2-6)Gal(b1-4)GlcNAc(b1-2)Man(a1-3)][GlcNAc(b1-4)]Man(b1-4)GlcNAc(b1-4)GlcNAc", "in_short": "as §1"}, "[27]": {"molecular_target": "Neu5Ac(a2-6)Gal(b1-4)GlcNAc(b1-3)Gal(b1-3)GlcNAc", "in_short": "as §1"}, "[28]": {"molecular_target": "Neu5Ac(a2-6)Gal(b1-4)GlcNAc(b1-3)Gal(b1-4)GlcNAc", "in_short": "as §1"}, "[29]": {"molecular_target": "Neu5Ac(a2-6)Gal(b1-4)GlcNAc(b1-3)Gal(b1-4)GlcNAc(b1-2)Man(a1-3)[Neu5Ac(a2-6)Gal(b1-4)GlcNAc(b1-3)Gal(b1-4)GlcNAc(b1-2)Man(a1-6)]GalNAc", "in_short": "as §1"}, "[30]": {"molecular_target": "Neu5Ac(a2-6)Gal(b1-4)GlcNAc(b1-3)Gal(b1-4)GlcNAc(b1-3)Gal(b1-4)GlcNAc", "in_short": "as §1"}, "[31]": {"molecular_target": "Neu5Ac(a2-6)Gal(b1-4)GlcNAc(b1-3)Gal(b1-4)GlcNAc(b1-3)Gal(b1-4)GlcNAc(b1-2)Man(a1-3)[Neu5Ac(a2-6)Gal(b1-4)GlcNAc(b1-3)Gal(b1-4)GlcNAc(b1-3)Gal(b1-4)GlcNAc(b1-2)Man(a1-6)]GalNAc", "in_short": "as §1"}, "[32]": {"molecular_target": "Neu5Ac(a2-6)Gal(b1-4)GlcNAc(b1-3)Gal(b1-4)GlcNAc(b1-3)GalNAc", "in_short": "as §1"}, "[33]": {"molecular_target": "Neu5Ac(a2-6)Gal(b1-4)GlcNAc(b1-3)Gal(b1-4)GlcNAc(b1-6)[Gal(b1-3)]GalNAc", "in_short": "as §1"}, "[34]": {"molecular_target": "Neu5Ac(a2-6)Gal(b1-4)GlcNAc(b1-3)Gal(b1-4)[Fuc(a1-3)]GlcNAc(b1-3)Gal(b1-4)[Fuc(a1-3)]GlcNAc", "in_short": "as §1"}}, "note": "Some of the results follow.", "data": [{"binder": "B1", "values": [{"measurement": "glycan array binding signal (z-score)", "setting": "[1]", "result": 0.196}, {"measurement": "glycan array binding signal (z-score)", "setting": "[2]", "result": -0.278}, {"measurement": "glycan array binding signal (z-score)", "setting": "[3]", "result": -0.172}, {"measurement": "glycan array binding signal (z-score)", "setting": "[4]", "result": -0.349}, {"measurement": "glycan array binding signal (z-score)", "setting": "Neu5Ac(a2-3)GalNAc", "result": -0.418}, {"measurement": "glycan array binding signal (z-score)", "setting": "[5]", "result": -0.276}, {"measurement": "glycan array binding signal (z-score)", "setting": "[6]", "result": -0.198}, {"measurement": "glycan array binding signal (z-score)", "setting": "[7]", "result": -0.184}, {"measurement": "glycan array binding signal (z-score)", "setting": "[8]", "result": 0.314}, {"measurement": "glycan array binding signal (z-score)", "setting": "[9]", "result": -0.511}, {"measurement": "glycan array binding signal (z-score)", "setting": "Neu5Ac(a2-6)Gal", "result": -0.359}, {"measurement": "glycan array binding signal (z-score)", "setting": "[10]", "result": -0.226}, {"measurement": "glycan array binding signal (z-score)", "setting": "Neu5Ac(a2-6)Gal(b1-4)Glc", "result": -0.108}, {"measurement": "glycan array binding signal (z-score)", "setting": "[11]", "result": -0.062}, {"measurement": "glycan array binding signal (z-score)", "setting": "[12]", "result": -0.293}, {"measurement": "glycan array binding signal (z-score)", "setting": "[13]", "result": 0.126}, {"measurement": "glycan array binding signal (z-score)", "setting": "[14]", "result": 1.05}, {"measurement": "glycan array binding signal (z-score)", "setting": "[15]", "result": -0.206}, {"measurement": "glycan array binding signal (z-score)", "setting": "[16]", "result": -0.228}, {"measurement": "glycan array binding signal (z-score)", "setting": "[17]", "result": -0.245}, {"measurement": "glycan array binding signal (z-score)", "setting": "[18]", "result": -0.295}, {"measurement": "glycan array binding signal (z-score)", "setting": "[19]", "result": -0.173}, {"measurement": "glycan array binding signal (z-score)", "setting": "[20]", "result": -0.125}, {"measurement": "glycan array binding signal (z-score)", "setting": "[21]", "result": 0.633}, {"measurement": "glycan array binding signal (z-score)", "setting": "[22]", "result": -0.24}, {"measurement": "glycan array binding signal (z-score)", "setting": "[23]", "result": 0.169}, {"measurement": "glycan array binding signal (z-score)", "setting": "[24]", "result": -0.167}, {"measurement": "glycan array binding signal (z-score)", "setting": "[25]", "result": 0.063}, {"measurement": "glycan array binding signal (z-score)", "setting": "[26]", "result": -0.267}, {"measurement": "glycan array binding signal (z-score)", "setting": "[27]", "result": -0.422}, {"measurement": "glycan array binding signal (z-score)", "setting": "[28]", "result": 0.167}, {"measurement": "glycan array binding signal (z-score)", "setting": "[29]", "result": 0.866}, {"measurement": "glycan array binding signal (z-score)", "setting": "[30]", "result": -0.148}, {"measurement": "glycan array binding signal (z-score)", "setting": "[31]", "result": 1.5}, {"measurement": "glycan array binding signal (z-score)", "setting": "[32]", "result": 0.397}, {"measurement": "glycan array binding signal (z-score)", "setting": "[33]", "result": -0.249}, {"measurement": "glycan array binding signal (z-score)", "setting": "[34]", "result": 0.063}]}]}
